The values below come from the supplement of paper PMC12819154, “High-throughput peptide-centric local stability assay extends protein–ligand identification to membrane proteins, tissues and bacteria” (Nature Structural & Molecular Biology, 2025).

Protein sequences, listed by entry. Tags and fused reporters are not part of them. Lines headed by an entry give the natural chain unless they say otherwise; changes in a name come on top.
UniProt P50539: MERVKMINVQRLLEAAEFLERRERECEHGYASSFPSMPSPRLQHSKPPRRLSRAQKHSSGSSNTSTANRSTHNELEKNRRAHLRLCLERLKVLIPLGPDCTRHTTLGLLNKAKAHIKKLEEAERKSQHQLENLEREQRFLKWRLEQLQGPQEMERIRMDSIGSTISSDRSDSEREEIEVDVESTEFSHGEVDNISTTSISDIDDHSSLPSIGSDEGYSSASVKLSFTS
UniProt P46379: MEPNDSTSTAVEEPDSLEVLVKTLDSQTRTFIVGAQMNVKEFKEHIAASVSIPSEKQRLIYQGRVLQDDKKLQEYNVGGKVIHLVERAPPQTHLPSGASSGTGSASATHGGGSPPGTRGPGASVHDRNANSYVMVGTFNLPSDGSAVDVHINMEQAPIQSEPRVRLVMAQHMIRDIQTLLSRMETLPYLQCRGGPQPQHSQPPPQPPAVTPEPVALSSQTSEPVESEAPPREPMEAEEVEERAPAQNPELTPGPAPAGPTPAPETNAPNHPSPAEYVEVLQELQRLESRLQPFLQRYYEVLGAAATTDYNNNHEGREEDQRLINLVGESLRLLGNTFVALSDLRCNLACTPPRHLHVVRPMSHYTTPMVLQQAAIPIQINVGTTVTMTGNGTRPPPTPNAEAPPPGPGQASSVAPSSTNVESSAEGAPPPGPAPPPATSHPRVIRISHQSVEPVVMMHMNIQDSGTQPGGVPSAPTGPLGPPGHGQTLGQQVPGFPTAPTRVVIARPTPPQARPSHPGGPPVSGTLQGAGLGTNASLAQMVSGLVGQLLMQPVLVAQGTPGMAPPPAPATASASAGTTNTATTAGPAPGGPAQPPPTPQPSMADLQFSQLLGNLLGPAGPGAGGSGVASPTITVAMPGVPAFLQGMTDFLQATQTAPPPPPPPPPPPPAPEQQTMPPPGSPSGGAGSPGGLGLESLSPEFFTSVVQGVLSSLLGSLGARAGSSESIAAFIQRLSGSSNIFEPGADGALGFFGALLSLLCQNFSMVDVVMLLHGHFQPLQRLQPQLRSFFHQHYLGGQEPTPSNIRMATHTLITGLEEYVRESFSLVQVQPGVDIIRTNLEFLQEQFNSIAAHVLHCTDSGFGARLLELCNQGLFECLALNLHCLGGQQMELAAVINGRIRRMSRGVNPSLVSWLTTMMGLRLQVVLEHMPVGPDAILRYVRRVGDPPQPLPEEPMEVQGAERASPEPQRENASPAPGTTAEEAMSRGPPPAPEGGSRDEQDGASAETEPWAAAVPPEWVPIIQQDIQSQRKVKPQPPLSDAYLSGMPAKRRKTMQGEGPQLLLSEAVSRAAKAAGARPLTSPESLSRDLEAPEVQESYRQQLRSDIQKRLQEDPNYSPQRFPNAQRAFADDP
UniProt P52824: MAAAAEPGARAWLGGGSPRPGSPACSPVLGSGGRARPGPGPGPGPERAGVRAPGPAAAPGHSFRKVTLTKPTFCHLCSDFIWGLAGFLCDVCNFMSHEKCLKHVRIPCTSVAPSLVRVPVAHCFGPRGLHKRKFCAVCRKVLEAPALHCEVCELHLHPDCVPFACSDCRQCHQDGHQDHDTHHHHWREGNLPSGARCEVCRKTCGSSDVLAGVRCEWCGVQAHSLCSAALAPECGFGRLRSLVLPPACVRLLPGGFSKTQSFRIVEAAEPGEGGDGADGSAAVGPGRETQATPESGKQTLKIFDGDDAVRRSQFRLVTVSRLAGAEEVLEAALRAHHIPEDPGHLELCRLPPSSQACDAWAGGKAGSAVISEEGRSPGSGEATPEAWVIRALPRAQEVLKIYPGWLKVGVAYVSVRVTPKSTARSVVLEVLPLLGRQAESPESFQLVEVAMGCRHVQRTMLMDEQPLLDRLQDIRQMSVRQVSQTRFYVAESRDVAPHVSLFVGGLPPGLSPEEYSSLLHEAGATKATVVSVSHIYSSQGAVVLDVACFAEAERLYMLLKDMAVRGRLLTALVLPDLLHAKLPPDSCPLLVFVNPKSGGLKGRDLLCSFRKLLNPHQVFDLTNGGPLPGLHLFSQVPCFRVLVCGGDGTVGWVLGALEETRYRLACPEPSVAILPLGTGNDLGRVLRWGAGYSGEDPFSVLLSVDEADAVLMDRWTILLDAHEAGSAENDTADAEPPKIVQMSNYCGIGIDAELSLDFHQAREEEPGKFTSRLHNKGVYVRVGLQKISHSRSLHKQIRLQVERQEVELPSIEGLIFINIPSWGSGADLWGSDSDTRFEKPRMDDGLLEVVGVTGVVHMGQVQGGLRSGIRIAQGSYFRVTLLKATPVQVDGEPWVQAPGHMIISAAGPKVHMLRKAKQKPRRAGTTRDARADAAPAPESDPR
UniProt P49841: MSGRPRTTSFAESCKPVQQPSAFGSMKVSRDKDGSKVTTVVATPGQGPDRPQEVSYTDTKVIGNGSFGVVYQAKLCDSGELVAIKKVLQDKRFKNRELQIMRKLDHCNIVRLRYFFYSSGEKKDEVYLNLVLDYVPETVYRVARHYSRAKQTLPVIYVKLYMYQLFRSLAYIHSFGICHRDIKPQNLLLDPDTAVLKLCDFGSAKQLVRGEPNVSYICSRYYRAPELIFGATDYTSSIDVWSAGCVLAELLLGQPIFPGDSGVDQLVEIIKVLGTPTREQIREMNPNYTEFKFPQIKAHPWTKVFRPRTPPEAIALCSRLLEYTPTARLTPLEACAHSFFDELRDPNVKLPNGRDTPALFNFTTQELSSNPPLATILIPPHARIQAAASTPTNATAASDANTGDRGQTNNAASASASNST
UniProt P54252: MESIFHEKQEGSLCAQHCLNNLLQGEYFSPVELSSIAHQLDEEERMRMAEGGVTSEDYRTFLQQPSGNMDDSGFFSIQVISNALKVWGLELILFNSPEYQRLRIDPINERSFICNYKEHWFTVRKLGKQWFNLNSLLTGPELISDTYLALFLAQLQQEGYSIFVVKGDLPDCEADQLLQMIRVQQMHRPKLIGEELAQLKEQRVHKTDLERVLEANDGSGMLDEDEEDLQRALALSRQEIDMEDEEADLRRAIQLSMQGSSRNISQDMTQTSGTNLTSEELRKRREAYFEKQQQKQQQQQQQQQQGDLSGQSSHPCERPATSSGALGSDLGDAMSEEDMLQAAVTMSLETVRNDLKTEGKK
UniProt P50336: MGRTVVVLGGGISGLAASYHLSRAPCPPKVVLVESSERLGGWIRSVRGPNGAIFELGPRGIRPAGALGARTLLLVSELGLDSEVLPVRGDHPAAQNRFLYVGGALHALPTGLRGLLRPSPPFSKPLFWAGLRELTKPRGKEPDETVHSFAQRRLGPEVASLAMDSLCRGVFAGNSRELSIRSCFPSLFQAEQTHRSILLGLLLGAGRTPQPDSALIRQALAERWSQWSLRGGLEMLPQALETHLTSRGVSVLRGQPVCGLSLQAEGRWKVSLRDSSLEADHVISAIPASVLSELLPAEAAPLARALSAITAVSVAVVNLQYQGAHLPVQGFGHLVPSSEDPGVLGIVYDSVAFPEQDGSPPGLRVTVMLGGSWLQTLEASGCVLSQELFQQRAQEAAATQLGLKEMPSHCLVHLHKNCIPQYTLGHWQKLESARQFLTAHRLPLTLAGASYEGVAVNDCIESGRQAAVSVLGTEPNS
UniProt P51114, whole entry: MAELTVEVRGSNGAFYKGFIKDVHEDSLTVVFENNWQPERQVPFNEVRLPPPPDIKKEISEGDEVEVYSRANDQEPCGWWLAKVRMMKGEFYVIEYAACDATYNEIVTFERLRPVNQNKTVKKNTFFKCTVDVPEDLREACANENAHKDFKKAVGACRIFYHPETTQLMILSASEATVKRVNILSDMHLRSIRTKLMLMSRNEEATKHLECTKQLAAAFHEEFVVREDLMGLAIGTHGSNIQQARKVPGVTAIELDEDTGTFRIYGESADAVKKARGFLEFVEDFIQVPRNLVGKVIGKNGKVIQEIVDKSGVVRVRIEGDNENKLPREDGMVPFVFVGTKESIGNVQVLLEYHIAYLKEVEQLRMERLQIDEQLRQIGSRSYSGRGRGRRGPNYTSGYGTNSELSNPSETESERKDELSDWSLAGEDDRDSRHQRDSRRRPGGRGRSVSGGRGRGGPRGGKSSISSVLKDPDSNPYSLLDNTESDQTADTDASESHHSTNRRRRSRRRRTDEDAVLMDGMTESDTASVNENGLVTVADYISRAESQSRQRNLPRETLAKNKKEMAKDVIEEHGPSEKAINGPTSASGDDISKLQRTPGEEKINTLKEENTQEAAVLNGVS
UniProt P53567: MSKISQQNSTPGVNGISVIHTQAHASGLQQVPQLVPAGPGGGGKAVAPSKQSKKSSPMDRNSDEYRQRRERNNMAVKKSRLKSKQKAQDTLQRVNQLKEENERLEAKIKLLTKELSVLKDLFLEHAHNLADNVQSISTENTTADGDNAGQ
UniProt P52597: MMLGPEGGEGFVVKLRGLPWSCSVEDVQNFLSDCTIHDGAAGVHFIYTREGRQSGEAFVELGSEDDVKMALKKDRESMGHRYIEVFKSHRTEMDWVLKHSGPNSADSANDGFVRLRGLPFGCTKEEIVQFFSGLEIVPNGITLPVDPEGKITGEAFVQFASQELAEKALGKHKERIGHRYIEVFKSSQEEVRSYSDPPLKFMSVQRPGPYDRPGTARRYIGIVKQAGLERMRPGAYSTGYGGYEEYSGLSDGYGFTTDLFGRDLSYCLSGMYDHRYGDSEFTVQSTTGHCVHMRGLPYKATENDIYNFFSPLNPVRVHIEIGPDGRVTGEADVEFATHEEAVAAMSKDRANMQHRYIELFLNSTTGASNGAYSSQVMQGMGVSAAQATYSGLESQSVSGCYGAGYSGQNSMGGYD
UniProt P49761: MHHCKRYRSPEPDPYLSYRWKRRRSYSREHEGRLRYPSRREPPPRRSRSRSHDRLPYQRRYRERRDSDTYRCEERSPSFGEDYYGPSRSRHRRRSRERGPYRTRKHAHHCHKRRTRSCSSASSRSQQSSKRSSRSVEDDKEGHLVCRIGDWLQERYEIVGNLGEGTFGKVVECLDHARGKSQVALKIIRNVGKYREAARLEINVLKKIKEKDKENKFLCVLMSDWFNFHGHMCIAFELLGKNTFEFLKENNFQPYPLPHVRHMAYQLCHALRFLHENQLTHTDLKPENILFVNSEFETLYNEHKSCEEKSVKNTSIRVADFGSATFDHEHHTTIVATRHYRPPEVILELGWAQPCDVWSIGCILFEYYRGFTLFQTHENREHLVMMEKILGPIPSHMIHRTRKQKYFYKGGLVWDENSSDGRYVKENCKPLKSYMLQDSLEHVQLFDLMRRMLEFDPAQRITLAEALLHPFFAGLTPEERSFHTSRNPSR
UniProt P49773: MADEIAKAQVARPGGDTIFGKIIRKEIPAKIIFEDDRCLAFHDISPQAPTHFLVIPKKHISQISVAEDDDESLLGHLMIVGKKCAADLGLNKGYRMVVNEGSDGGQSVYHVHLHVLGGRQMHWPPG
UniProt P50991: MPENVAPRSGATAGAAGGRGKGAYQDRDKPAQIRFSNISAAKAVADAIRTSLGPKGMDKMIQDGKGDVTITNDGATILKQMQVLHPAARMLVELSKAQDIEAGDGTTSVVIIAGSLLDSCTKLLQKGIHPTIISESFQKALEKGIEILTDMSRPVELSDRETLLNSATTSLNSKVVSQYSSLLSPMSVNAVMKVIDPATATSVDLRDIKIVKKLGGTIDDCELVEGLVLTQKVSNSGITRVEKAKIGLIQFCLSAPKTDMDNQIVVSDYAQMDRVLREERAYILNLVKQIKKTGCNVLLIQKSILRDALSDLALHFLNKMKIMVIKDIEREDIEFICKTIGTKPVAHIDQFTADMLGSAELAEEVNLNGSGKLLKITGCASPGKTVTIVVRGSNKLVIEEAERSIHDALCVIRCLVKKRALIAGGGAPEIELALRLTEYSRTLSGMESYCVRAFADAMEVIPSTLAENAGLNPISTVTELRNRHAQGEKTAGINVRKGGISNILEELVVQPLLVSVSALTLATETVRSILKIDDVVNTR
UniProt P48506: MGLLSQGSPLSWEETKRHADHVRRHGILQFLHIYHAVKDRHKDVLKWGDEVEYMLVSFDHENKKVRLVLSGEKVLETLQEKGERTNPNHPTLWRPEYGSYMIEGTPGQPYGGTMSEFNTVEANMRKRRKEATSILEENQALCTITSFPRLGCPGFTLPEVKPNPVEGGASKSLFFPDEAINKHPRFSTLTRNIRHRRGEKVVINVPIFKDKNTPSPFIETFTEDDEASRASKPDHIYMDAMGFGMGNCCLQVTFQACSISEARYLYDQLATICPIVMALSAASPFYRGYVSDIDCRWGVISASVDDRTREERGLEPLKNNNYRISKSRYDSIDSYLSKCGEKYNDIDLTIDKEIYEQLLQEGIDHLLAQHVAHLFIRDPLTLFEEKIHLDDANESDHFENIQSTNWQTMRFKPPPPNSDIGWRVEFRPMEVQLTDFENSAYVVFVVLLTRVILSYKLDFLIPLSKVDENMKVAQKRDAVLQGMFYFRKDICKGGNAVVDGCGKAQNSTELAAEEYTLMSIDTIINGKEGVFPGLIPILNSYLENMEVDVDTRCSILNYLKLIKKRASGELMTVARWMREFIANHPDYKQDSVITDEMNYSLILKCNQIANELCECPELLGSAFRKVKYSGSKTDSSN

Some of the results follow. Most values lie at the level of the controls, where differences are scatter.

Compound in this assay: Cc1nc(Nc2ncc(C(=O)Nc3c(C)cccc3Cl)s2)cc(N2CCN(CCO)CC2)n1 [dasatinib]
In words: log2 fold change of tryptic peptide abundance, ligand vs vehicle (limited proteolysis) (log2 ratio); higher = more trypsin-susceptible (destabilized). The following applies: ligand concentration: 5 uM; sample: K562 cleared lysate.

“HCCS (peptide sequence: AYEYVECPIR, peptide start residue: 60) (UniProt P53701)”: the log2 fold change amounted to 0.219.
The result for “ARRB1 (peptide sequence: GMKDDKEEEEDGTGSPQLNNR, peptide start residue: 398) (UniProt P49407)” reads 0.186.
As for “KPNA2 (peptide sequence: QPPIDNIIR, peptide start residue: 109) (UniProt P52292)”, the log2 fold change is 0.0653.
In the case of “SUOX (peptide sequence: GVLSNAWHR, peptide start residue: 530) (UniProt P51687)”, the log2 fold change was found to be 0.33.
To “ALDH5A1 (peptide sequence: AFAEAMKK, peptide start residue: 359) (UniProt P51649)” belongs 0.415.
In the case of “PSEN1 (peptide sequence: MLVETAQER, peptide start residue: 270) (UniProt P49768)”, the log2 fold change was -0.398.
In the case of “UniProt P50539 (peptide sequence: KLEEAERK, peptide start residue: 118)”, the log2 fold change is 0.13.
The result for “UniProt P46379 (peptide sequence: VIHLVER, peptide start residue: 81)” reads -0.141; that for “DGKQ (peptide sequence: DLLCSFR, peptide start residue: 604) (UniProt P52824)”, -0.236.
To “UniProt P49841 (peptide sequence: AKQTLPVIYVK, peptide start residue: 149)” belongs -0.65; to “IRAK1 (peptide sequence: AIQFLHQDSPSLIHGDIK, peptide start residue: 325) (UniProt P51617)”, -0.27.
The result for “LIG3 (peptide sequence: VLHNAQEVEKEPGQR, peptide start residue: 454) (UniProt P49916)” reads -0.599; that for “ATXN3 (peptide sequence: MESIFHEK, peptide start residue: 1) (UniProt P54252)”, -0.0908.
On to “BLVRA (peptide sequence: FGFPAFSGISR, peptide start residue: 162) (UniProt P53004)”, for which the log2 fold change turned out to be 0.262.
The result for “CDC34 (peptide sequence: DGVKVPTTLAEYCVK, peptide start residue: 179) (UniProt P49427)” reads 0.207.
The result for “UniProt P48730 (peptide sequence: VASSGLQSVVHR, peptide start residue: 404)” reads 0.565; that for “PPOX (peptide sequence: APCPPKVVLVESSER, peptide start residue: 24) (UniProt P50336)”, -0.424; that for “FXR1 (peptide sequence: DVIEEHGPSEK, peptide start residue: 568) (UniProt P51114)”, 0.155.
As for “CEBPG (peptide sequence: VNQLKEENERLEAK, peptide start residue: 94) (UniProt P53567)”, the log2 fold change is -0.0372.
The result for “HNRNPF (peptide sequence: HSGPNSADSANDGFVR, peptide start residue: 99) (UniProt P52597)” reads 0.0917; that for “CLK3 (peptide sequence: EAARLEINVLKK, peptide start residue: 344) (UniProt P49761)”, 1.
To “POLD2 (peptide sequence: AMPLQPSILR, peptide start residue: 100) (UniProt P49005)” belongs 0.168; to “CLTCL1 (peptide sequence: VVGAMQLYSVDR, peptide start residue: 177) (UniProt P53675)”, -0.481; to “SEC24C (peptide sequence: LFLFHTSLPIAEAPGK, peptide start residue: 639) (UniProt P53992)”, -0.314.
To “PSMD7 (peptide sequence: VVVHPLVLLSVVDHFNR, peptide start residue: 9) (UniProt P51665)” belongs 0.523; to “UniProt P49959 (peptide sequence: HIDALEDKIDEEVRR, peptide start residue: 489)”, -0.105.
For the target “CLCN5 (peptide sequence: SYNGGGIGSSNR, peptide start residue: 58) (UniProt P51795)”, the log2 fold change was 0.187.
The result for “HINT1 (peptide sequence: PGGDTIFGK, peptide start residue: 13) (UniProt P49773)” reads 0.0727.
The result for “GNPDA1 (peptide sequence: YFTLGLPTGSTPLGCYKK, peptide start residue: 34) (UniProt P46926)” reads 0.809; that for “CDK9 (peptide sequence: ILQLLKHENVVNLIEICR, peptide start residue: 69) (UniProt P50750)”, 0.26; that for “MRPL12 (peptide sequence: NYIQGINLVQAKK, peptide start residue: 151) (UniProt P52815)”, 0.406.
The result for “DAPK1 (peptide sequence: KASAVNMEK, peptide start residue: 287) (UniProt P53355)” reads -0.635; that for “CCT4 (peptide sequence: EDIEFICK, peptide start residue: 331) (UniProt P50991)”, -0.468.
Take “CRIP2 (peptide sequence: GVNTGAVGSYIYDRDPEGK, peptide start residue: 187) (UniProt P52943)”: the log2 fold change came out at 0.0884.
For the target “PSMB2 (peptide sequence: VAASNIVQMKDDHDK, peptide start residue: 20) (UniProt P49721)”, the log2 fold change was -0.0942.
To “GCLC (peptide sequence: YSGSKTDSSN, peptide start residue: 628) (UniProt P48506)” belongs 0.663; to “CCT3 (peptide sequence: AVAQALEVIPR, peptide start residue: 439) (UniProt P49368)”, -0.131.
